From paper PMC10942257 come the findings set out here.

Amino acid sequences for entries named in this document (tags omitted). A change or cut given only in a name is not applied to a line headed by its entry.
UniProt Q9LHS9: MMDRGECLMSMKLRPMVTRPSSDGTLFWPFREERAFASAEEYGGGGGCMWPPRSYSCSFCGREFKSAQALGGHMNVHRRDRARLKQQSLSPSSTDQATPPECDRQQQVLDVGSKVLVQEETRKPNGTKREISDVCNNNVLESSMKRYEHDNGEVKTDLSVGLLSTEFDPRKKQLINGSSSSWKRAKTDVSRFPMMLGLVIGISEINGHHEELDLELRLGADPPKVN

Results are given in words; binding and its absence hold for the method and conditions named. For part of these data: Binding seen in cells or lysates may run through a third protein. For part of these data: Where a sequence is shown, tags or fusion partners need not be part of it.

Assay [1] addresses RBE with point mutations in the EAR motif (mRBE), yeast two-hybrid fusion (Arabidopsis thaliana) (UniProt Q9LHS9). As to the kind of experiment: two-hybrid; Gal4 system, pGADT7 (prey) and pGBKT7-GW (bait) co-transformed into Y2H Gold yeast; DDO (SD-Leu-Trp) to select, QDO to analyze interactions; repeated three times.
Assay [2] addresses YFPn-mRBE (RBE with point mutations in the EAR motif) (Arabidopsis thaliana) (UniProt Q9LHS9). The assay can be described thus: split reporter; BiFC with YFPn and YFPc fusions (pEarleyGate202-YN, pEarleyGate201-YC) co-infiltrated by Agrobacterium into N. benthamiana leaves with P19; confocal imaging 48h after infiltration.

B1: TOPLESS (TPL), yeast two-hybrid fusion (protein, UniProt Q94AI7 1-1131)
chain: MSSLSRELVFLILQFLDEEKFKETVHKLEQESGFFFNMKYFEDEVHNGNWDEVEKYLSGFTKVDDNRYSMKIFFEIRKQKYLEALDKHDRPKAVDILVKDLKVFSTFNEELFKEITQLLTLENFRENEQLSKYGDTKSARAIMLVELKKLIEANPLFRDKLQFPTLRNSRLRTLINQSLNWQHQLCKNPRPNPDIKTLFVDHSCGPPNGARAPSPVNNPLLGGIPKAGGFPPLGAHGPFQPTASPVPTPLAGWMSSPSSVPHPAVSAGAIALGGPSIPAALKHPRTPPTNASLDYPSADSEHVSKRTRPMGISDEVNLGVNMLPMSFSGQAHGHSPAFKAPDDLPKTVARTLSQGSSPMSMDFHPIKQTLLLVGTNVGDIGLWEVGSRERLVQKTFKVWDLSKCSMPLQAALVKEPVVSVNRVIWSPDGSLFGVAYSRHIVQLYSYHGGEDMRQHLEIDAHVGGVNDISFSTPNKQLCVITCGDDKTIKVWDAATGVKRHTFEGHEAPVYSVCPHYKENIQFIFSTALDGKIKAWLYDNMGSRVDYDAPGRWCTTMAYSADGTRLFSCGTSKDGESFIVEWNESEGAVKRTYQGFHKRSLGVVQFDTTKNRYLAAGDDFSIKFWDMDAVQLLTAIDGDGGLQASPRIRFNKEGSLLAVSGNENVIKIMANSDGLRLLHTFENISSESSKPAINSIAAAAAAAATSAGHADRSANVVSIQGMNGDSRNMVDVKPVITEESNDKSKIWKLTEVSEPSQCRSLRLPENLRVAKISRLIFTNSGNAILALASNAIHLLWKWQRNERNATGKATASLPPQQWQPASGILMTNDVAETNPEEAVPCFALSKNDSYVMSASGGKISLFNMMTFKTMATFMPPPPAATFLAFHPQDNNIIAIGMDDSTIQIYNVRVDEVKSKLKGHSKRITGLAFSNVLNVLVSSGADAQLCVWNTDGWEKQRSKVLPLPQGRPNSAPSDTRVQFHQDQAHFLVVHETQLAIYETTKLECMKQWAVRESLAPITHATFSCDSQLVYASFMDATVCVFSSANLRLRCRVNPSAYLPASLSNSNVHPLVIAAHPQEPNMFAVGLSDGGVHIFEPLESEGKWGVAPPAENGSASGAPTAPSVGASASDQPQR
As to B1, the binding result in assay [1] is listed as “no binding”.

B2: YFPc-TPL (protein, UniProt Q94AI7 1-1131)
chain: B1 chain
Consider B2, for which, in assay [2], the binding result is “no binding”.

B3: YFPc-HDA19 (enzyme, UniProt O22446 1-501)
chain: MDTGGNSLASGPDGVKRKVCYFYDPEVGNYYYGQGHPMKPHRIRMTHALLAHYGLLQHMQVLKPFPARDRDLCRFHADDYVSFLRSITPETQQDQIRQLKRFNVGEDCPVFDGLYSFCQTYAGGSVGGSVKLNHGLCDIAINWAGGLHHAKKCEASGFCYVNDIVLAILELLKQHERVLYVDIDIHHGDGVEEAFYATDRVMTVSFHKFGDYFPGTGHIQDIGYGSGKYYSLNVPLDDGIDDESYHLLFKPIMGKVMEIFRPGAVVLQCGADSLSGDRLGCFNLSIKGHAECVKFMRSFNVPLLLLGGGGYTIRNVARCWCYETGVALGVEVEDKMPEHEYYEYFGPDYTLHVAPSNMENKNSRQMLEEIRNDLLHNLSKLQHAPSVPFQERPPDTETPEVDEDQEDGDKRWDPDSDMDVDDDRKPIPSRVKREAVEPDTKDKDGLKGIMERGKGCEVEVDESGSTKVTGVNPVGVEEASVKMEEEGTNKGGAEQAFPPKT
Consider B3, for which the binding result in assay [2] is reported as “no binding”.
